# Whole data set: some 1,500 compounds, median “activity” near 2, cut for the lowest 2% near -18. The list shows a part of the results. Active and inactive are the calls of the source.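 How the source made its calls: active means inhibition of at least 40% at 10 µM; inconclusive means no clear call, values can overlap the other calls; inactive means the rest.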
# Amino acid sequences for entries named in this document (tags omitted). A change or cut given only in a name is not applied to a line headed by its entry.
# UniProt O00391: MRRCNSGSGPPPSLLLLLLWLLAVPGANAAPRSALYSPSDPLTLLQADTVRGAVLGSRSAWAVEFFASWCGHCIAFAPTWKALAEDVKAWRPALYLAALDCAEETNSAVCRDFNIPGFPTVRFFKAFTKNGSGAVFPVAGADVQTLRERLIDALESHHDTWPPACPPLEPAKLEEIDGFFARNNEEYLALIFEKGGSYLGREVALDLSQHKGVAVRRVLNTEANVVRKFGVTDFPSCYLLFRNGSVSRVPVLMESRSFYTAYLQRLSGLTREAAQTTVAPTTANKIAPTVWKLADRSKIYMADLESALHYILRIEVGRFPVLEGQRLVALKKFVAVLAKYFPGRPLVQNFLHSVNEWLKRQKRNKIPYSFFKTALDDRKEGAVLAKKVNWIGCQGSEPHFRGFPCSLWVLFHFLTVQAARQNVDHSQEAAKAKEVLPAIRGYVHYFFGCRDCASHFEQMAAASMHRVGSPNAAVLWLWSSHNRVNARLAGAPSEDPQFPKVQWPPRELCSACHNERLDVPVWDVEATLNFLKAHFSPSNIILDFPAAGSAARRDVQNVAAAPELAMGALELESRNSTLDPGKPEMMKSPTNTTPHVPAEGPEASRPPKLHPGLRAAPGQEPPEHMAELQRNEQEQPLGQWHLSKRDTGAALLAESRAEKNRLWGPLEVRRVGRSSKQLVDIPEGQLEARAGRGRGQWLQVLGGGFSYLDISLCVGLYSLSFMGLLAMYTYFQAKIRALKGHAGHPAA
# Biological target: Sulfhydryl oxidase 1 (Homo sapiens) (UniProt O00391)
# Assay: human QSOX1 sulfhydryl oxidase inhibition – biochemical, ROS-Glo luminescence, single concentration, confirmation (AID 1347421);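 further: 0% = DMSO wells with enzyme and 100% = wells lacking QSOX1 enzyme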
# Conditions: recombinant hQSOX1, RNase A substrate, ROS-Glo H2O2 luminescence; at 10 µM
row,Compound,activity
1,FC(F)(F)c1cc(-c2ccco2)nc(NCc2cccs2)n1,inactive: -4.8%
2,CCN1CCN(C(=O)N(CC)CC)CC1,3.9%
3,CN(Cc1ccccc1)C(=O)CCC1CCN(C(=O)c2cc[n+]([O-])cc2)CC1,5.5%
4,CCCn1c(=O)c2c(nc3n2CCN3Cc2ccco2)n(C)c1=O,inactive: -9.9%
5,C#CCN(CC=C)C(=O)CC1C(=O)NCCN1C/C=C/c1ccccc1OC (stereo not drawn),inactive: -4.1%
6,c1cc(-c2n[nH]c(-c3ccncc3)n2)ccn1,inactive: -13%
7,Cc1cc(N2CCN(C(=O)c3ccco3)CC2)n2ncnc2n1,inactive: -11.7%
8,CS(=O)(=O)c1ncc(CN(CCO)Cc2ccccc2)n1CC1CCCO1 (stereo not drawn),inactive: -2.6%
9,Cc1cccc(C)c1NC(=O)C1C2C=CC(C3CC23)C1C(=O)O (stereo not drawn),inactive: -6.3%
10,COc1ccc(CNCc2c(C(=O)N3C[C@@H](C)O[C@@H](C)C3)nc3sccn23)cc1,2.5%
11,Cc1cccc(CN2CCOC(Cc3cccc(C(F)(F)F)c3)C2)n1 (stereo not drawn),5.3%
12,O=C1CCCCN1CC(=O)N1CCOC(CCc2ccccc2)C1 (stereo not drawn),4.5%
13,COc1cc(CN(C)Cc2ccncn2)ccc1OCC(O)CN(C)C(C)C (stereo not drawn),1.4%
14,CN(CCc1ccccn1)C(=O)CCC1CCCN(C(=O)CSc2ccccn2)C1 (stereo not drawn),7.1%
15,O=C(CSc1nc2ncccc2[nH]1)NC1CCCCCC1,2.3%
16,COCCCC1CCN(C(=O)C2(N(C)C)Cc3ccccc3C2)CC1,7.6%
17,Cc1cc(NCCc2ccc(Cl)cc2)n2ncnc2n1,inactive: -1.3%
18,Cc1nc(N)nc2c1C(=O)CC(c1ccco1)C2 (stereo not drawn),inactive: -9.8%
19,Cn1cc(CCC(=O)N2CCOC(CCc3ccccc3)C2)cn1 (stereo not drawn),4.7%
20,Cc1[nH]ncc1C(=O)N1CCOC(CCc2ccccc2)C1 (stereo not drawn),5.8%
21,O=c1c2cc(-c3ccccc3)sc2ncn1CC(O)CO (stereo not drawn),7.1%
22,O=C(CCC1CCN(S(=O)(=O)CC(F)(F)F)CC1)NCc1ccc(F)cc1,2.1%
23,Cc1ccc(S(=O)(=O)N2CCCC2)cc1C(=O)NCC(C)C,2%

row,Compound,activity
1,CCC1=NOC(Cn2ncc(N3CCc4ccccc4C3)cc2=O)C1 (stereo not drawn),9.6%
2,C=CCN(Cc1nc(-c2ccc(C(=O)OC)cc2)oc1C)C1CCS(=O)(=O)C1 (stereo not drawn),inactive: 0%
3,NC(=O)C1CCCN(Cc2cn(-c3ccccc3)nc2-c2ccc3c(c2)OCO3)C1 (stereo not drawn),inactive: -1.5%
4,CN(Cc1ccccc1)C(=O)CCC1CCN(C(=O)C2CC=CCC2)CC1 (stereo not drawn),18.7%
5,CCc1nc(C)c(C(=O)NC2CC(=O)N(CCCc3ccccc3)C2)o1 (stereo not drawn),7.5%
6,O=C(c1ccc[nH]1)N1CCCC(Cn2cc(-c3ccc(F)cc3)nn2)C1 (stereo not drawn),2.3%
7,COc1cc(CN(C)Cc2cccnc2)ccc1OCC(O)CN1CCSCC1 (stereo not drawn),inactive: -5.8%
8,Cc1cc(N2CCN(C(=O)c3cn(Cc4ccccc4F)nn3)CC2)cc(C)n1,2.1%
9,CCOC(=O)CN(C)C(=O)c1cc(COc2cccc(C(F)(F)F)c2)on1,inactive: -0.2%
10,O=C(Cn1nc2ccccc2n1)N1CCCC(Nc2ccc3c(c2)OCCO3)C1 (stereo not drawn),3.5%
11,COc1ccc(-c2noc(CN(Cc3ccccn3)CC3CCCO3)n2)c(OC)c1OC (stereo not drawn),3.3%
12,Cc1cc(N2CCN(c3ccccn3)CC2)n2ncnc2n1,inactive: -15.1%
13,Fc1ccc(/C=C/CNC2CCCN(c3ncccn3)C2)cc1 (stereo not drawn),0.1%
14,COC(=O)c1ccc(C(=O)N2CCOC(Cc3cccc(F)c3)C2)cc1 (stereo not drawn),14.3%
15,Cc1ccccc1C(=O)Nc1c(Cl)ccc2nsnc12,0.9%
16,CN(Cc1ncc[nH]1)CC1CCCN(CCc2ccc(Cl)cc2)C1 (stereo not drawn),3%
17,COc1ccc(-c2nc(CN(Cc3ccncc3)C[C@@H]3CCC(=O)N3)c(C)o2)c(F)c1,12.3%
18,COCCC(=O)Nc1ccc2c(c1)CN(Cc1cccn1-c1ncccn1)CC2,inactive: -2.8%
19,O=C(CCC1CCCN(Cc2ccccn2)C1)N1CCN(Cc2ccccc2)CC1 (stereo not drawn),inactive: -0.9%
20,O=C(c1ccc(CS(=O)(=O)c2ccccc2)cc1)N1CCCC1,inactive: -0.4%
21,O=C1CCCN1CC(=O)N1CCOC(Cc2cccc(C(F)(F)F)c2)C1 (stereo not drawn),4.6%
22,CCOC(=O)C1(CCOC)CCN(CCc2ccccc2)CC1,5.5%
23,CNC(=O)COc1ccc(C(C)(C)c2ccccc2)cc1,inactive: -8.4%

# Of the compounds above, these contain fluorine:
row,Compound,activity
1,FC(F)(F)c1cc(-c2ccco2)nc(NCc2cccs2)n1,inactive: -4.8%
11,Cc1cccc(CN2CCOC(Cc3cccc(C(F)(F)F)c3)C2)n1 (stereo not drawn),5.3%
22,O=C(CCC1CCN(S(=O)(=O)CC(F)(F)F)CC1)NCc1ccc(F)cc1,2.1%
6,O=C(c1ccc[nH]1)N1CCCC(Cn2cc(-c3ccc(F)cc3)nn2)C1 (stereo not drawn),2.3%
8,Cc1cc(N2CCN(C(=O)c3cn(Cc4ccccc4F)nn3)CC2)cc(C)n1,2.1%
9,CCOC(=O)CN(C)C(=O)c1cc(COc2cccc(C(F)(F)F)c2)on1,inactive: -0.2%
13,Fc1ccc(/C=C/CNC2CCCN(c3ncccn3)C2)cc1 (stereo not drawn),0.1%
14,COC(=O)c1ccc(C(=O)N2CCOC(Cc3cccc(F)c3)C2)cc1 (stereo not drawn),14.3%
17,COc1ccc(-c2nc(CN(Cc3ccncc3)C[C@@H]3CCC(=O)N3)c(C)o2)c(F)c1,12.3%
21,O=C1CCCN1CC(=O)N1CCOC(Cc2cccc(C(F)(F)F)c2)C1 (stereo not drawn),4.6%

# Rewritten with tabs: part of the list above
row	Compound	activity
9	CCOC(=O)CN(C)C(=O)c1cc(COc2cccc(C(F)(F)F)c2)on1	inactive: -0.2%
10	O=C(Cn1nc2ccccc2n1)N1CCCC(Nc2ccc3c(c2)OCCO3)C1 (stereo not drawn)	3.5%

# Next compounds.

row,Compound,activity
1,Cc1cc(C)n(-c2cccc(CN3CCOC(CCN(C)C)C3)c2)n1 (stereo not drawn),inactive: -0.4%
2,Cc1cc(-c2nn(-c3ccccc3F)cc2CN2CCCN(C=O)CC2)c(C)s1,7.5%
3,COC(=O)C1CCN(CC(O)COc2ccc(CNCCOC(C)C)cc2)CC1 (stereo not drawn),inactive: -0.5%
4,CC(C)(CO)CNC(=O)CCc1nnc(CCCc2ccccc2)o1,4.9%
5,COCC(=O)N1CCc2[nH]nc(-c3ccc(-c4ccccc4)cc3)c2C1,13.4%
6,Fc1cccc(C2(CNC3CCN(Cc4ccccn4)CC3)CCOC2)c1 (stereo not drawn),7.9%
7,Cn1c(C(=O)N2CCc3ccccc3C2)cc2c(=O)n3ccccc3nc21,3.7%
8,CC(C)Cc1ccc(CN2CCCC(NC3CCN(C)CC3)C2)cc1 (stereo not drawn),inactive: -2.5%
9,N#Cc1ccc(N2CCN(CC3(c4cccc(F)c4)CCOC3)CC2)nc1 (stereo not drawn),1.9%
10,Cn1ccnc1CN1CCCC1c1ccc(C(=O)NCc2ccncc2)s1 (stereo not drawn),inactive: -2%
11,O=C(Cc1cn2ccsc2n1)N1CCc2onc(-c3ccccc3)c2C1,4.3%
12,COc1ccccc1CCN1CCCC(CN(C)C(=O)CSc2ncccn2)C1 (stereo not drawn),inactive: -4.1%
13,CC(C)C(=O)N1CCN(c2ccc(NC(=O)c3ccccn3)cc2)CC1,7.7%
14,Cc1nonc1CC(=O)NC1CCCN(CCc2ccccc2)C1 (stereo not drawn),inactive: -1.9%
15,Cc1ccccc1-c1nc(CN2CCN(c3ccccn3)CC2)cs1,33.6%
16,c1ccc(-c2nc(CN3CCN(Cc4ccco4)CC3)cs2)cc1,active: 85.9%
17,CC(C)CCCC1CN(Cc2ncc[nH]2)CCO1 (stereo not drawn),5.8%
18,c1ccc(-c2nn3c(-c4cccs4)nnc3s2)nc1,inactive: -20.4%
19,Cn1cc(/C=C/C(=O)N2CCCC(N3CCN(c4ccccc4F)CC3)C2)cn1 (stereo not drawn),11.9%
20,CS(=O)(=O)c1cccc(S(=O)(=O)NC2CCCC2)c1,7%
21,COCc1ccc(C(=O)N2CCOC(CC3CCCCC3)C2)o1 (stereo not drawn),6%
22,O=C(CC1C(=O)NCCN1CCCc1ccccc1)NCCCn1cccn1 (stereo not drawn),9.3%
